Experimental data published in publication PMC10994172.
Results are given in words; binding and its absence hold for the method and conditions named. Some binding calls cover weakened binding; strength is not graded here.

By UniProt entry, the sequences of proteins in these tests, tags left out. Where a name states a change or a piece, a line headed by the entry shows the natural chain unless it says otherwise.
UniProt P19097: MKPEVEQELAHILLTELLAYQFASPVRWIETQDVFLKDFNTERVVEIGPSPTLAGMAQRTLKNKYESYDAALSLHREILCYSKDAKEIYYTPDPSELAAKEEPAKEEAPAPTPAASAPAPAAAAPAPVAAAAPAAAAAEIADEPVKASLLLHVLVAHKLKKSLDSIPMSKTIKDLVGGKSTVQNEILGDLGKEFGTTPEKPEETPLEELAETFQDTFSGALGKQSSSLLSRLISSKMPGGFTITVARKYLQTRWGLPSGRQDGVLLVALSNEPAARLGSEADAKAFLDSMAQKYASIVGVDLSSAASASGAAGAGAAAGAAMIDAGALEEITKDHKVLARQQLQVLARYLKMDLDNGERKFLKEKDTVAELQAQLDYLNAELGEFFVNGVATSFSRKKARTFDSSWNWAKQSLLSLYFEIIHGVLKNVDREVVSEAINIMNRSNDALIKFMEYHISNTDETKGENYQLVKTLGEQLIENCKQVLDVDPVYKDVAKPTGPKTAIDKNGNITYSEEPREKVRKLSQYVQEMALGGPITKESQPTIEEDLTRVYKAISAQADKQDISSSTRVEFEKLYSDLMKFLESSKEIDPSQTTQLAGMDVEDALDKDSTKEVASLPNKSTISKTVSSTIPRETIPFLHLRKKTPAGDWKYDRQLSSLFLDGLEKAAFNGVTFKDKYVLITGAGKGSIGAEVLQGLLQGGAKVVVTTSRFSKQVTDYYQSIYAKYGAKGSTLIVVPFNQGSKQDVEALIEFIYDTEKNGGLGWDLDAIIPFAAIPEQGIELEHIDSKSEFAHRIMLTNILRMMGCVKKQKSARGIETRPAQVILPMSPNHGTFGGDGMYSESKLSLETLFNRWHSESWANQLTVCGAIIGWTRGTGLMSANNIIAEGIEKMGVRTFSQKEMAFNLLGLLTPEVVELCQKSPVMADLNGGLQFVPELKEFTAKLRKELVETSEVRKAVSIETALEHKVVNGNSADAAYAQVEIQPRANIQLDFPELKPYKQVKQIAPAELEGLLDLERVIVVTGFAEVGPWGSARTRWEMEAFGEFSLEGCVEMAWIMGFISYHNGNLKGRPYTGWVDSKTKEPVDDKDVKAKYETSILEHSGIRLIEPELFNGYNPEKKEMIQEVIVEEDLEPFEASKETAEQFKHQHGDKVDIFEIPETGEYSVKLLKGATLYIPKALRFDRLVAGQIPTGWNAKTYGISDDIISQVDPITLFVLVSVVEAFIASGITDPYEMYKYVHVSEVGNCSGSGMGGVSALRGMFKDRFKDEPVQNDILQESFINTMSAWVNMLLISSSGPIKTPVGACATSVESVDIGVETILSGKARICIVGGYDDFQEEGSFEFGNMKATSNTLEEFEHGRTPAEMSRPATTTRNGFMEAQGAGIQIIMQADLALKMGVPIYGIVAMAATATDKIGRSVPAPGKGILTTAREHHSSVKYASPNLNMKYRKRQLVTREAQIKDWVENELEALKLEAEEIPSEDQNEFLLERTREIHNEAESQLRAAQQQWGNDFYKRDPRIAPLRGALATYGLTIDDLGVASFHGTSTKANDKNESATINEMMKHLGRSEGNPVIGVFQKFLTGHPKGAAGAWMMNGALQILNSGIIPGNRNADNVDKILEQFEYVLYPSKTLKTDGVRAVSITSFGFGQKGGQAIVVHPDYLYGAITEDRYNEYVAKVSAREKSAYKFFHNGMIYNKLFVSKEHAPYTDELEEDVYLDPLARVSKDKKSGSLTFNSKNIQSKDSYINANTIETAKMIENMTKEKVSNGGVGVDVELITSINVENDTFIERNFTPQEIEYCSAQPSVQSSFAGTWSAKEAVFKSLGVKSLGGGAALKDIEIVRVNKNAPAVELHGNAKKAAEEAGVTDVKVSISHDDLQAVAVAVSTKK
UniProt P07149: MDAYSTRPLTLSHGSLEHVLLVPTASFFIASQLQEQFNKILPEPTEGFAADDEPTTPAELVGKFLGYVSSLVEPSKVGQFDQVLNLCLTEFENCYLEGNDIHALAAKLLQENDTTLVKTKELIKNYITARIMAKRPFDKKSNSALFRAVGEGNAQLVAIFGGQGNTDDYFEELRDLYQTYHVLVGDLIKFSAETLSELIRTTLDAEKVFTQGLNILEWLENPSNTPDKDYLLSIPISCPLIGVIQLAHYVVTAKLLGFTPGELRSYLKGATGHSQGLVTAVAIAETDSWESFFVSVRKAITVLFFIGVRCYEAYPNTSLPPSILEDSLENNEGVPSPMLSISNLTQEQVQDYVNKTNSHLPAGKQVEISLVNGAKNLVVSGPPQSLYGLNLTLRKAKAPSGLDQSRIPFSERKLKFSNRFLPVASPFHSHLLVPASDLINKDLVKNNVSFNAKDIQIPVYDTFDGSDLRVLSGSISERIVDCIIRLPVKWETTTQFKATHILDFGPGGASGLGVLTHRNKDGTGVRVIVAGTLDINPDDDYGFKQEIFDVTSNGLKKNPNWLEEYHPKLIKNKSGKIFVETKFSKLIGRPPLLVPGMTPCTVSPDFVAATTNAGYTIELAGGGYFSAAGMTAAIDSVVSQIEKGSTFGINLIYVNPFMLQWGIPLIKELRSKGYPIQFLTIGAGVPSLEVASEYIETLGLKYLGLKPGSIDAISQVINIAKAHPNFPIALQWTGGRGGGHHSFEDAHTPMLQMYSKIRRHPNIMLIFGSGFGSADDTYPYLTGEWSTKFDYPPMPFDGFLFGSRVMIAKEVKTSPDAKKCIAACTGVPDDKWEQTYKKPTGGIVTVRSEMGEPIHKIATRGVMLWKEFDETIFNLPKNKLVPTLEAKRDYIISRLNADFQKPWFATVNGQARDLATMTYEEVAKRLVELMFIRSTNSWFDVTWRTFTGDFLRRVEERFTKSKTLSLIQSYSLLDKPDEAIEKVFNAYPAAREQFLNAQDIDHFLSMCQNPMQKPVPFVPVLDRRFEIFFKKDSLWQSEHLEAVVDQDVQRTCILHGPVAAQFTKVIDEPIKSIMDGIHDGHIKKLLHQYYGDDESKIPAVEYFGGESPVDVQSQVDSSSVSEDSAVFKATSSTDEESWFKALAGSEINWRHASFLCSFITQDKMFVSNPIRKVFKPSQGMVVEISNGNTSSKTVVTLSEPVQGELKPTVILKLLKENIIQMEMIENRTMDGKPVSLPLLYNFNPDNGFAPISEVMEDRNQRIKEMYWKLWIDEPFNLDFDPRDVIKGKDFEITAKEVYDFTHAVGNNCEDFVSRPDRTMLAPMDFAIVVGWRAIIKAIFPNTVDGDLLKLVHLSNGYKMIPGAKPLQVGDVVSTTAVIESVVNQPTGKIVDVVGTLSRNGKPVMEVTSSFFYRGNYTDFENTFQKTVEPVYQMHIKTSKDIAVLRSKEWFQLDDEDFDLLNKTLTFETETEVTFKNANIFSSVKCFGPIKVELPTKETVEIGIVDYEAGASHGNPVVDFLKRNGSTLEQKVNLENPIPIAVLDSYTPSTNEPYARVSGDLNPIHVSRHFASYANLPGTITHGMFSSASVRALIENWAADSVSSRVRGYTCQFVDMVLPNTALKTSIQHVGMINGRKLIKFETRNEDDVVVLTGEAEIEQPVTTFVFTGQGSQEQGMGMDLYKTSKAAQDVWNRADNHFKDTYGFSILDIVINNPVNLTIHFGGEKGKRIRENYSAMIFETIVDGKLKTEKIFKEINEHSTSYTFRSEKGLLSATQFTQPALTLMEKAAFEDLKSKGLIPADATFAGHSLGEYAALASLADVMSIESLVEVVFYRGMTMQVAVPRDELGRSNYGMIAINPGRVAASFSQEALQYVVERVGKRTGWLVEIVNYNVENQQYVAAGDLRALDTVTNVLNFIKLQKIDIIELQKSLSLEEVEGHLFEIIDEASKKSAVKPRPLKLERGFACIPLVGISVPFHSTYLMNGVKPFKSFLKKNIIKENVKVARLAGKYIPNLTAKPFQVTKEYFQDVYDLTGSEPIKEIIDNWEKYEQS

Biological target: Yeast fatty-acid synthase (FAS) (yeast) (UniProt P19097+P07149)
Assay: cryo-EM structure; both purified

binding: binds
Substance: Yeast fatty-acid synthase (FAS) (from UniProt P19097 1-1887; P07149 1-2051) (complex)
